4 molecules from article doi:10.1101/2025.08.07.669166 can be followed below.

Protein sequences, listed by entry. Tags and fused reporters are not part of them.
UniProt P04150: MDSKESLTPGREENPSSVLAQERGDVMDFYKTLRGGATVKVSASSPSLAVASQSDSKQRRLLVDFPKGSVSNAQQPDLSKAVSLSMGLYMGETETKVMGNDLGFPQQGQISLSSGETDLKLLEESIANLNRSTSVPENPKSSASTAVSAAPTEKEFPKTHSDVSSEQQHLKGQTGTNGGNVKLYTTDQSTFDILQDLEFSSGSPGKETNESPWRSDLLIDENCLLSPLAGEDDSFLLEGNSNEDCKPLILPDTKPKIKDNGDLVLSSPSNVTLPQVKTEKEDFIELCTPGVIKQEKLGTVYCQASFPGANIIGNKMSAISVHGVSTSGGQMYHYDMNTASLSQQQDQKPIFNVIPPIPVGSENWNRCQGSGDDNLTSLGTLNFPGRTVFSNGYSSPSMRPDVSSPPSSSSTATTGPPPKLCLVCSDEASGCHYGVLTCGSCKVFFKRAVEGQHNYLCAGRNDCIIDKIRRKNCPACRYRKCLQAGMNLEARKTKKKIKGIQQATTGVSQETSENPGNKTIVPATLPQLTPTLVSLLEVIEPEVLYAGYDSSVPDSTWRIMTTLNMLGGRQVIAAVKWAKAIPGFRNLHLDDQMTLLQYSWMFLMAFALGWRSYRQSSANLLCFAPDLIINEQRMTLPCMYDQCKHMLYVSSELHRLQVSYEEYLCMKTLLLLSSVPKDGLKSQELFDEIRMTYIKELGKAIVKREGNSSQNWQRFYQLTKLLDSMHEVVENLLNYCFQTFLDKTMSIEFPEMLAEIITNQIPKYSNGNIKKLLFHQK

Common to all, as to assay: affinity purification with mass spectrometry
Assay [1] addresses glucocorticoid receptor (human (endogenous in primary human cells, human cell lines and human PDX tumours)) (UniProt P04150).
Assay [2] shares this target. This is another data set of the same source.
Assay [3] has the same target. This is another data set of the same source.
Assay [4] shares this target. This is another data set of the same source.
The target is the same in assay [5]. The source holds these as a separate data set.

Read-outs that look alike come from different tables or passages of the source. Results are given in words; binding and its absence hold for the method and conditions named. In cells and extracts the contact can be indirect. A yes stands for co-enrichment or nearness to the bait. Other partners may have been found.

B1: GRHL1 (protein, UniProt Q9NZI5 1-618)
chain: MTQEYDNKRPVLVLQNEALYPQRRSYTSEDEAWKSFLENPLTAATKAMMSINGDEDSAAALGLLYDYYKVPRERRSSTAKPEVEHPEPDHSKRNSIPIVTEQPLISAGENRVQVLKNVPFNIVLPHGNQLGIDKRGHLTAPDTTVTVSIATMPTHSIKTETQPHGFAVGIPPAVYHPEPTERVVVFDRNLNTDQFSSGAQAPNAQRRTPDSTFSETFKEGVQEVFFPSDLSLRMPGMNSEDYVFDSVSGNNFEYTLEASKSLRQKPGDSTMTYLNKGQFYPITLKEVSSSEGIHHPISKVRSVIMVVFAEDKSREDQLRHWKYWHSRQHTAKQRCIDIADYKESFNTISNIEEIAYNAISFTWDINDEAKVFISVNCLSTDFSSQKGVKGLPLNIQVDTYSYNNRSNKPVHRAYCQIKVFCDKGAERKIRDEERKQSKRKVSDVKVPLLPSHKRMDITVFKPFIDLDTQPVLFIPDVHFANLQRGTHVLPIASEELEGEGSVLKRGPYGTEDDFAVPPSTKLARIEEPKRVLLYVRKESEEVFDALMLKTPSLKGLMEAISDKYDVPHDKIGKIFKKCKKGILVNMDDNIVKHYSNEDTFQLQIEEAGGSYKLTLTEI
As for B1, the binding result in assay [1], in assay [2], in assay [3] and in assay [4] was “binds” in each case.

B2: ZEB2 (protein, UniProt O60315 1-1214)
chain: MKQPIMADGPRCKRRKQANPRRKNVVNYDNVVDTGSETDEEDKLHIAEDDGIANPLDQETSPASVPNHESSPHVSQALLPREEEEDEIREGGVEHPWHNNEILQASVDGPEEMKEDYDTMGPEATIQTAINNGTVKNANCTSDFEEYFAKRKLEERDGHAVSIEEYLQRSDTAIIYPEAPEELSRLGTPEANGQEENDLPPGTPDAFAQLLTCPYCDRGYKRLTSLKEHIKYRHEKNEENFSCPLCSYTFAYRTQLERHMVTHKPGTDQHQMLTQGAGNRKFKCTECGKAFKYKHHLKEHLRIHSGEKPYECPNCKKRFSHSGSYSSHISSKKCIGLISVNGRMRNNIKTGSSPNSVSSSPTNSAITQLRNKLENGKPLSMSEQTGLLKIKTEPLDFNDYKVLMATHGFSGTSPFMNGGLGATSPLGVHPSAQSPMQHLGVGMEAPLLGFPTMNSNLSEVQKVLQIVDNTVSRQKMDCKAEEISKLKGYHMKDPCSQPEEQGVTSPNIPPVGLPVVSHNGATKSIIDYTLEKVNEAKACLQSLTTDSRRQISNIKKEKLRTLIDLVTDDKMIENHNISTPFSCQFCKESFPGPIPLHQHERYLCKMNEEIKAVLQPHENIVPNKAGVFVDNKALLLSSVLSEKGMTSPINPYKDHMSVLKAYYAMNMEPNSDELLKISIAVGLPQEFVKEWFEQRKVYQYSNSRSPSLERSSKPLAPNSNPPTKDSLLPRSPVKPMDSITSPSIAELHNSVTNCDPPLRLTKPSHFTNIKPVEKLDHSRSNTPSPLNLSSTSSKNSHSSSYTPNSFSSEELQAEPLDLSLPKQMKEPKSIIATKNKTKASSISLDHNSVSSSSENSDEPLNLTFIKKEFSNSNNLDNKSTNPVFSMNPFSAKPLYTALPPQSAFPPATFMPPVQTSIPGLRPYPGLDQMSFLPHMAYTYPTGAATFADMQQRRKYQRKQGFQGELLDGAQDYMSGLDDMTDSDSCLSRKKIKKTESGMYACDLCDKTFQKSSSLLRHKYEHTGKRPHQCQICKKAFKHKHHLIEHSRLHSGEKPYQCDKCGKRFSHSGSYSQHMNHRYSYCKREAEEREAAEREAREKGHLEPTELLMNRAYLQSITPQGYSDSEERESMPRDGESEKEHEKEGEDGYGKLGRQDGDEEFEEEEEESENKSMDTDPETIRDEEETGDHSMDDSSEDGKMETKSDHEEDNMEDGM
Take B2: the binding result in assay [3] and in assay [5] was “binds” in each case.

B3: ZEB1 (protein, UniProt P37275 1-1124)
chain: MADGPRCKRRKQANPRRNNVTNYNTVVETNSDSDDEDKLHIVEEESVTDAADCEGVPEDDLPTDQTVLPGRSSEREGNAKNCWEDDRKEGQEILGPEAQADEAGCTVKDDECESDAENEQNHDPNVEEFLQQQDTAVIFPEAPEEDQRQGTPEASGHDENGTPDAFSQLLTCPYCDRGYKRFTSLKEHIKYRHEKNEDNFSCSLCSYTFAYRTQLERHMTSHKSGRDQRHVTQSGCNRKFKCTECGKAFKYKHHLKEHLRIHSGEKPYECPNCKKRFSHSGSYSSHISSKKCISLIPVNGRPRTGLKTSQCSSPSLSASPGSPTRPQIRQKIENKPLQEQLSVNQIKTEPVDYEFKPIVVASGINCSTPLQNGVFTGGGPLQATSSPQGMVQAVVLPTVGLVSPISINLSDIQNVLKVAVDGNVIRQVLENNQANLASKEQETINASPIQQGGHSVISAISLPLVDQDGTTKIIINYSLEQPSQLQVVPQNLKKENPVATNSCKSEKLPEDLTVKSEKDKSFEGGVNDSTCLLCDDCPGDINALPELKHYDLKQPTQPPPLPAAEAEKPESSVSSATGDGNLSPSQPPLKNLLSLLKAYYALNAQPSAEELSKIADSVNLPLDVVKKWFEKMQAGQISVQSSEPSSPEPGKVNIPAKNNDQPQSANANEPQDSTVNLQSPLKMTNSPVLPVGSTTNGSRSSTPSPSPLNLSSSRNTQGYLYTAEGAQEEPQVEPLDLSLPKQQGELLERSTITSVYQNSVYSVQEEPLNLSCAKKEPQKDSCVTDSEPVVNVIPPSANPINIAIPTVTAQLPTIVAIADQNSVPCLRALAANKQTILIPQVAYTYSTTVSPAVQEPPLKVIQPNGNQDERQDTSSEGVSNVEDQNDSDSTPPKKKMRKTENGMYACDLCDKIFQKSSSLLRHKYEHTGKRPHECGICKKAFKHKHHLIEHMRLHSGEKPYQCDKCGKRFSHSGSYSQHMNHRYSYCKREAEERDSTEQEEAGPEILSNEHVGARASPSQGDSDERESLTREEDEDSEKEEEEEDKEMEELQEEKECEKPQGDEEEEEEEEEVEEEEVEEAENEGEEAKTEGLMKDDRAESQASSLGQKVGESSEQVSEEKTNEA
Regarding B3, the binding result in assay [3] and in assay [5] was “binds” throughout.

B4: TRPS1 (protein, UniProt Q9UHF7 1-1281)
chain: MVRKKNPPLRNVASEGEGQILEPIGTESKVSGKNKEFSADQMSENTDQSDAAELNHKEEHSLHVQDPSSSSKKDLKSAVLSEKAGFNYESPSKGGNFPSFPHDEVTDRNMLAFSSPAAGGVCEPLKSPQRAEADDPQDMACTPSGDSLETKEDQKMSPKATEETGQAQSGQANCQGLSPVSVASKNPQVPSDGGVRLNKSKTDLLVNDNPDPAPLSPELQDFKCNICGYGYYGNDPTDLIKHFRKYHLGLHNRTRQDAELDSKILALHNMVQFSHSKDFQKVNRSVFSGVLQDINSSRPVLLNGTYDVQVTSGGTFIGIGRKTPDCQGNTKYFRCKFCNFTYMGNSSTELEQHFLQTHPNKIKASLPSSEVAKPSEKNSNKSIPALQSSDSGDLGKWQDKITVKAGDDTPVGYSVPIKPLDSSRQNGTEATSYYWCKFCSFSCESSSSLKLLEHYGKQHGAVQSGGLNPELNDKLSRGSVINQNDLAKSSEGETMTKTDKSSSGAKKKDFSSKGAEDNMVTSYNCQFCDFRYSKSHGPDVIVVGPLLRHYQQLHNIHKCTIKHCPFCPRGLCSPEKHLGEITYPFACRKSNCSHCALLLLHLSPGAAGSSRVKHQCHQCSFTTPDVDVLLFHYESVHESQASDVKQEANHLQGSDGQQSVKESKEHSCTKCDFITQVEEEISRHYRRAHSCYKCRQCSFTAADTQSLLEHFNTVHCQEQDITTANGEEDGHAISTIKEEPKIDFRVYNLLTPDSKMGEPVSESVVKREKLEEKDGLKEKVWTESSSDDLRNVTWRGADILRGSPSYTQASLGLLTPVSGTQEQTKTLRDSPNVEAAHLARPIYGLAVETKGFLQGAPAGGEKSGALPQQYPASGENKSKDESQSLLRRRRGSGVFCANCLTTKTSLWRKNANGGYVCNACGLYQKLHSTPRPLNIIKQNNGEQIIRRRTRKRLNPEALQAEQLNKQQRGSNEEQVNGSPLERRSEDHLTESHQREIPLPSLSKYEAQGSLTKSHSAQQPVLVSQTLDIHKRMQPLHIQIKSPQESTGDPGNSSSVSEGKGSSERGSPIEKYMRPAKHPNYSPPGSPIEKYQYPLFGLPFVHNDFQSEADWLRFWSKYKLSVPGNPHYLSHVPGLPNPCQNYVPYPTFNLPPHFSAVGSDNDIPLDLAIKHSRPGPTANGASKEKTKAPPNVKNEGPLNVVKTEKVDRSTQDELSTKCVHCGIVFLDEVMYALHMSCHGDSGPFQCSICQHLCTDKYDFTTHIQRGLHRNNAQVEKNGKPKE
Consider B4, for which the binding result in assay [3] is on record as “binds”.
